According to US20250283895A1, “METHODS FOR PREDICTING AND TREATING CHRONIC LUNG ALLOGRAFT DYSFUNCTION” (CHILDREN'S HOSPITAL MEDICAL CENTER, priority 2022, published 2025):
For at least one compound, name, drawing or mass did not settle the structure.

System: CLAD-BOS phenotype
Assay: HRCT scan of the chest of a bilateral lung transplant patient after Ruxolitinib therapy (FIG. 2)
Type: in vivo, human
Details: person

Q: Which results are given for `N#CC[C@H](C1CCCC1)n1cc(-c2ncnc3[nH]ccc23)cn1` [Ruxolitinib]?
A: Repeat HRCT of chest: CLAD-BOS phenotype (HRCT 3/14/22 vs Nov. 12, 2021, unresponsive to higher dose glucocorticoids): stable vs minimally improved; Progression of CLAD-BOS on therapy (repeat HRCT 3/14/22): no progression
